Paper PMC6508795

B1: NdhS (BiFC fusion) (protein, UniProt Q9T0A4 49-250)
chain: AMGKFNLWEVMGGRGLCNGEKGIEKELQRNIEDEQETSKAENNETERESDDSNLSFKVPEDGFEKEMMGLTGGFPGGEKGLKTFIEKNPPPPPPPPPAKQGSDASAVATDKKPKAPKLPLLMPGMIAIVKNQNSPYHMYCGIVQRITDGKAGVLFEGGNWDRLITFRLEELERREKGPPGKNPKSCILEPLIEQMQKEEAAP
B2: PGR5 (BiFC fusion) (protein, UniProt Q9SL05 61-133)
chain: KNVNEGKGLFAPLVVVTRNLVGKKRFNQLRGKAIALHSQVITEFCKSIGADAKQRQGLIRLAKKNGERLGFLA

Biological target: TRX-x (BiFC fusion) (Arabidopsis thaliana)
Experiment: split reporter; BiFC: YFP-N and YFP-C fusions (pSPYNE-35S, pSPYCE-35S) coexpressed in N. benthamiana leaves by Agrobacterium GV3101 infiltration; confocal imaging of YFP and chlorophyll autofluorescence 3 days after infiltration

| Binder | binding |
| --- | --- |
| B1 | no binding |
| B2 | no binding |

No constants are given. Whether binding was seen depends on the method and setting. Binding seen in cells or lysates may run through a third protein. Where a sequence is shown, tags or fusion partners need not be part of it.
